This note sets out measurements from patent publication US8129527B2, “Analogs of dehydrophenylahistins and their therapeutic use” (Nereus Pharmacuticals, Inc., priority 2006, dated 2012).

Like-named read-outs stand apart in the source and are kept apart here.

Experiment [1] has as its system P388 murine leukemia cells. Briefly: Cytotoxic effect in P388 cells. The experiment is classed as cell-based. To be noted: Mus musculus, P388, read-out: IC50 (nM) P-388; Table 2. From the text: The cytotoxic effects of phenylahistin, dehydrophenylahistin and various derivatives of dehydrophenylahistin were examined in P388 murine leukemia cells, HT-29 human colon cells, and PC-3 prostatic adenocarcinoma cells.

In experiment [2] the test system is MCF7 human breast carcinoma cells. Briefly: Mitotic progression (mitotic index). The experiment is classed as cell-based.

Take `COc1cc2c(c(OC)c1OC)-c1ccc(OC)c(=O)cc1[C@@H](NC(C)=O)CC2` [Colchicine]: the IC50 in experiment [1] was 208 ± 68 nM; in experiment [2] (MCF7, 20 hours, read-out: mitotic block IC50) it was 0.0238 ± 0.0031 µM; in experiment [2] (MCF7 cells, 20 hours, read-out: Mitotic block Ave. IC50 ± sd) it was 0.0238 ± 0.0031 µM.
